Data as given in PubChem BioAssay AID1508597 (Cure First, 2020).
Assay: 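Genes whose silencing sensitises or protects ovarian cancer cells against rucaparib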 (primary screen). Cell system: human ovarian carcinoma lines grown from tumours: OCI-P5x (papillary serous) and OCI-C5x (clear cell). Knock-down reagent: siRNA pool against human genes, 1.25 pmol siRNA per well. Time to read-out: 72 h or 96 h, depending on the cell culture. Treatment: rucaparib 20 µM (about IC30) or vehicle, present until read-out. Rucaparib or vehicle: Rucaparib. Cell line: OCI-C5x (clear cell). Measured: 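ATP luminescence measured at 72 or 96 h according to the culture, then normalised and expressed as percent viability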. Scale: viability, normalised: higher = more viable cells remaining. Active means: 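a well counts as a hit if its normalised viability is under 80 percent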. Calls: active = viability under 80%; inactive = viability 80% or more.
Shown is a random part of the about 2,100 reagents, under one of the conditions tested. 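Calls flag viability under 80% in either arm, not effects specific to rucaparib; the reference for percent is not stated.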 A number with no mark means an inactive call. A reagent listed more than once was tested more than once; the source does not tell the runs apart. Reagent sequences are not shown. Not given: the 100% reference.

{"Gene": "SMC3", "technical replicate": "1", "viability, normalised (%)": "53 (active)"}
{"Gene": "SMC3", "technical replicate": "2", "viability, normalised (%)": "45.5 (active)"}
{"Gene": "SMC3", "technical replicate": "3", "viability, normalised (%)": "35.9 (active)"}
{"Gene": "HDAC1", "technical replicate": "1", "viability, normalised (%)": "54 (active)"}
{"Gene": "HDAC1", "technical replicate": "1", "viability, normalised (%)": "45.3 (active)"}
{"Gene": "HDAC1", "technical replicate": "2", "viability, normalised (%)": "68.2 (active)"}
{"Gene": "HDAC1", "technical replicate": "2", "viability, normalised (%)": "41.4 (active)"}
{"Gene": "HDAC1", "technical replicate": "3", "viability, normalised (%)": "71.1 (active)"}
{"Gene": "HDAC1", "technical replicate": "3", "viability, normalised (%)": "38.9 (active)"}
{"Gene": "PRKY", "technical replicate": "1", "viability, normalised (%)": "53.6 (active)"}
{"Gene": "PRKY", "technical replicate": "2", "viability, normalised (%)": "65.1 (active)"}
{"Gene": "PRKY", "technical replicate": "3", "viability, normalised (%)": "39.8 (active)"}
{"Gene": "AXL", "technical replicate": "1", "viability, normalised (%)": "49.2 (active)"}
{"Gene": "AXL", "technical replicate": "2", "viability, normalised (%)": "61.3 (active)"}
{"Gene": "AXL", "technical replicate": "3", "viability, normalised (%)": "54.5 (active)"}
{"Gene": "PIK3CA", "technical replicate": "1", "viability, normalised (%)": "35.9 (active)"}
{"Gene": "PIK3CA", "technical replicate": "1", "viability, normalised (%)": "33.6 (active)"}
{"Gene": "PIK3CA", "technical replicate": "2", "viability, normalised (%)": "29.7 (active)"}
{"Gene": "PIK3CA", "technical replicate": "2", "viability, normalised (%)": "35.7 (active)"}
{"Gene": "PIK3CA", "technical replicate": "3", "viability, normalised (%)": "36.3 (active)"}
{"Gene": "PIK3CA", "technical replicate": "3", "viability, normalised (%)": "37.7 (active)"}

Continued (3 carried over from the part before).
{"Gene": "PIK3CA", "technical replicate": "2", "viability, normalised (%)": "35.7 (active)"}
{"Gene": "PIK3CA", "technical replicate": "3", "viability, normalised (%)": "36.3 (active)"}
{"Gene": "PIK3CA", "technical replicate": "3", "viability, normalised (%)": "37.7 (active)"}
{"Gene": "UBTF", "technical replicate": "1", "viability, normalised (%)": "51.6 (active)"}
{"Gene": "UBTF", "technical replicate": "2", "viability, normalised (%)": "44.3 (active)"}
{"Gene": "UBTF", "technical replicate": "3", "viability, normalised (%)": "36.5 (active)"}
{"Gene": "VCAM1", "technical replicate": "1", "viability, normalised (%)": "67.5 (active)"}
{"Gene": "VCAM1", "technical replicate": "2", "viability, normalised (%)": "42 (active)"}
{"Gene": "VCAM1", "technical replicate": "3", "viability, normalised (%)": "42 (active)"}
{"Gene": "PRKAG1", "technical replicate": "1", "viability, normalised (%)": "75.3 (active)"}
{"Gene": "PRKAG1", "technical replicate": "2", "viability, normalised (%)": "75.4 (active)"}
{"Gene": "PRKAG1", "technical replicate": "3", "viability, normalised (%)": 80.3}
{"Gene": "PI4K2A", "technical replicate": "1", "viability, normalised (%)": "55.4 (active)"}
{"Gene": "PI4K2A", "technical replicate": "2", "viability, normalised (%)": "39.3 (active)"}
{"Gene": "PI4K2A", "technical replicate": "3", "viability, normalised (%)": "50.7 (active)"}
